Data set [1] deals with tubulin. Kind of data set: Isothermal titration calorimetry (ITC) binding to tubulin. Conditions: for ΔG of binding to tubulin (ITC) / ΔH of binding to tubulin (ITC): low c-value conditions; for increase in affinity of fragment when titrated against tubulin: MP and TG fragments.
The subject of data set [2] is human lung adenocarcinoma cell line A549. Kind of data set: MTT cytotoxicity assay, A549. Conditions: for anti-tumor activity against A549 better than that of PTOX: IC50 ratio vs PTOX; for anti-tumor activity against A549 better than that of nocodazole: IC50 ratio vs nocodazole. The data set is classed as cell-based. The procedure:
Cytotoxicity assays were performed on the human gastric carcinoma cell line BGC-823, the human lung adenocarcinoma cell line A549, the human hepatocellular liver carcinoma HepG2, and the normal human hepatic immortal cell line HL-7702. Cells (3500–13,000) were seeded into 96-well microtest plates in 100 μL of culture medium per well (Falcon, CA). The cells were treated in triplicate with a gradient concentration of test compounds and incubated at 37 °C in RPMI-1640 with 100 mg L^−1 kanamycin and 10% (v/v) fetal bovine serum in a humidified atmosphere containing 5% CO2 for 48 h. The plating efficiencies of the untreated cells varied between experiments with values ranging from 14 to 31% for the HL-7702 cells. For all cell lines, microculture tetrazolium [3-(4, 5-dimethylthiazol-2-yl)−2, 5-diphenyltetrazolium bromide, MTT; Sigma, St. Louis, MO] assay was performed to measure cytotoxic effects. […] The initial seeding densities varied among the cell lines to ensure a final absorbance reading in control (untreated) cultures within the range of 0.6–0.8 A492 units. […] Each test was performed in triplicate, and the absorbance readings between the triplicates varied by no more than 5%.
Data presented as means ± SD. Statistical analyses were performed by the analysis of variance (ANOVA). All statistical analyses were performed using Origin version 8.0 ([…], OriginLab Corp., Northampton, MA, USA). Sigmoidal dose responses and non-linear regression analyses were undertaken to identify half-maximal concentrations for each of the drugs. To evaluate differences in IC50 concentrations, analysis of variance combined with Tukey’s multiple range test was used.
In general terms: Formazan colour is commonly taken as a measure of viable cells.

Turning to `COc1cc(C2c3cc4c(cc3C(Sc3ncnc5nc[nH]c35)C3COC(=O)C23)OCO4)cc(OC)c1OC` (stereo not drawn) [Compound 4-MP-PTOX], in data set [1], the “ΔG of binding to tubulin (ITC)” value is -3.4 kcal/mol and the “ΔH of binding to tubulin (ITC)” value was -7.4 kcal/mol. Further, in data set [2], the “anti-tumor activity against A549 better than that of PTOX” value is on record as 17 times and the “anti-tumor activity against A549 better than that of nocodazole” value is 24 times.

Regarding `COc1cc(C2c3cc4c(cc3C(Sc3nc(N)nc5nc[nH]c35)C3COC(=O)C23)OCO4)cc(OC)c1OC` (stereo not drawn) [Compound 4-TG-PTOX], in data set [1], the “ΔG of binding to tubulin (ITC)” value is -3.1 kcal/mol and the “ΔH of binding to tubulin (ITC)” value is -5.3 kcal/mol. Also, in data set [2], the “anti-tumor activity against A549 better than that of PTOX” value is listed as 34 times and the “anti-tumor activity against A549 better than that of nocodazole” value is reported as 47 times.

Take `Sc1ncnc2nc[nH]c12` [MP, 6-mercaptopurine, reference compound]: the “increase in affinity of fragment when titrated against tubulin” value in data set [1] amounted to 1.8 times.

With `COc1cc([C@@H]2c3cc4c(cc3[C@H](O)[C@H]3COC(=O)[C@H]23)OCO4)cc(OC)c1OC` [PTOX, podophyllotoxin, reference compound], in data set [1], the “ΔG of binding to tubulin (ITC)” value is listed as -8.3 kcal/mol and the “ΔH of binding to tubulin (ITC)” value is -18.9 kcal/mol.

Regarding `Nc1nc2nc[nH]c2c(=S)[nH]1` [TG, 6-thioguanine, reference compound], the “increase in affinity of fragment when titrated against tubulin” value in data set [1] amounted to 12 times.

The values above are taken from PMC4426677, “Tubulin structure-based drug design for the development of novel 4β-sulfur-substituted podophyllum tubulin inhibitors with anti-tumor activity” (Scientific Reports, 2015).
